The record followed here is article PMC9144521 (Viruses, 2022).

One series concerns AdV3. Nature of the series: Anti-AdV activity assay (IFA of hexon), secondary screen, AdV3. In kind it is cell-based, Human adenoviruses type 3.
Another series has as its system AdV5. Nature of the series: Anti-AdV activity assay (IFA of hexon), secondary screen, AdV5. The series is classed as cell-based, Human adenoviruses type 5.
For a further series, the system named is Vero cells. Conditions: 48 h, CellTiter-Glo, concentrations tested up to 5 µM. In general terms: In ATP-based viability assays light output follows the ATP content of the culture.
Where [1] appears, read: Vero cells, 48 h, IFA of hexon, 0.02 to 5 μM.

For the compound `CC(C)n1nc(-c2cc3cc(O)ccc3[nH]2)c2c(N)ncnc21` [PP242], the “Selective Index AdV3” value with AdV3 (CC50/EC50, Vero cells) is greater than 4.85. The values for the 50% effective concentration (EC50) in the series with AdV3 (setting [1]) and in the series with AdV5 (setting [1]) were 1030 nM and 1970 nM, respectively. Moreover, the “Selective Index AdV5” value in the series on AdV5 (CC50/EC50, Vero cells) is greater than 2.54. Besides, the CC50 in the series with Vero cells was greater than 5000 nM.

A word on the EC50: it is the concentration at which the effect is half-maximal. What is called CC50 is the concentration giving 50% cytotoxicity. A lower CC50 goes with greater toxicity to the cells.
